Test results taken from publication doi:10.1101/2025.10.16.681972 (bioRxiv, 2025).
These are yes or no findings as the source states them, for the method shown. Binding seen in cells or lysates may run through a third protein. Tags and fused reporters may be left off the sequences shown.

Assays:
[1] = target: MERTK N-terminally tagged with NanoLuc or HaloTag (nanoBRET constructs) (UniProt Q12866); test: FRET or BRET
[2] = target: EGFR N-terminally tagged with NanoLuc or HaloTag (nanoBRET constructs) (UniProt P00533); test: FRET or BRET

- binding [1]: no binding
- binding [2]: no binding
B1: MERTK N-terminally tagged with NanoLuc or HaloTag (nanoBRET constructs) (receptor, UniProt Q12866 21-999)
chain: AITEAREEAKPYPLFPGPFPGSLQTDHTPLLSLPHASGYQPALMFSPTQPGRPHTGNVAIPQVTSVESKPLPPLAFKHTVGHIILSEHKGVKFNCSISVPNIYQDTTISWWKDGKELLGAHHAITQFYPDDEVTAIIASFSITSVQRSDNGSYICKMKINNEEIVSDPIYIEVQGLPHFTKQPESMNVTRNTAFNLTCQAVGPPEPVNIFWVQNSSRVNEQPEKSPSVLTVPGLTEMAVFSCEAHNDKGLTVSKGVQINIKAIPSPPTEVSIRNSTAHSILISWVPGFDGYSPFRNCSIQVKEADPLSNGSVMIFNTSALPHLYQIKQLQALANYSIGVSCMNEIGWSAVSPWILASTTEGAPSVAPLNVTVFLNESSDNVDIRWMKPPTKQQDGELVGYRISHVWQSAGISKELLEEVGQNGSRARISVQVHNATCTVRIAAVTRGGVGPFSDPVKIFIPAHGWVDYAPSSTPAPGNADPVLIIFGCFCGFILIGLILYISLAIRKRVQETKFGNAFTEEDSELVVNYIAKKSFCRRAIELTLHSLGVSEELQNKLEDVVIDRNLLILGKILGEGEFGSVMEGNLKQEDGTSLKVAVKTMKLDNSSQREIEEFLSEAACMKDFSHPNVIRLLGVCIEMSSQGIPKPMVILPFMKYGDLHTYLLYSRLETGPKHIPLQTLLKFMVDIALGMEYLSNRNFLHRDLAARNCMLRDDMTVCVADFGLSKKIYSGDYYRQGRIAKMPVKWIAIESLADRVYTSKSDVWAFGVTMWEIATRGMTPYPGVQNHEMYDYLLHGHRLKQPEDCLDELYEIMYSCWRTDPLDRPTFSVLRLQLEKLLESLPDVRNQADVIYVNTQLLESSEGLAQGSTLAPLDLNIDPDSIIASCTPRAAISVVTAEVHDSKPHEGRYILNGGSEEWEDLTSAPSAAVTAEKNSVLPGERLVRNGVSWSHSSMLPLGSSLPDELLFADDSSEGSEVLM
modifications: HaloTag AlexaFluor488 substrate (membrane impermeable) on the HaloTag copy
